The values that follow come from article PMC10951710.

These are yes or no findings as the source states them, for the method shown. In cells and extracts the contact can be indirect. Here binding means that the protein was enriched with, or labelled near, the bait; the list need not be complete. Where a sequence is shown, tags or fusion partners need not be part of it.

This experiment addresses T1, MKK2-TurboID-Hisx8 fusion protein (mitogen-activated protein kinase kinase 2 fused to TurboID) (Arabidopsis thaliana) (UniProt Q9S7U9).
T1 sequence: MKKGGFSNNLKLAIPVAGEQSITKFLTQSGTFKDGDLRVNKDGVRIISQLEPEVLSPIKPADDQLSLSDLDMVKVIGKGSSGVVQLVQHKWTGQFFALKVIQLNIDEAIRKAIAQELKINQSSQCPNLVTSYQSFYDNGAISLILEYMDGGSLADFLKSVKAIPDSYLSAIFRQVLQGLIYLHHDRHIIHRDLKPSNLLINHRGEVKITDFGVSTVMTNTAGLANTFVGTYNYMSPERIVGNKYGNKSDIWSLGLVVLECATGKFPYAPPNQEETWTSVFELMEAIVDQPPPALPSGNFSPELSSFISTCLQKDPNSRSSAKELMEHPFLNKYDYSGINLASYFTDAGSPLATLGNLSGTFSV
As to the kind of experiment: proximity labelling; in planta TurboID labelling in MKK1-ID or MKK2-ID transgenic Arabidopsis against TurboID-only (ID) plants; 150 uM biotin and 5 uM estradiol in the medium, 5 min wind of 4 m/sec; denaturing extraction, streptavidin enrichment of biotinylproteins and biotinylpeptides, LC-MS/MS, iBAQ quantitation; hits at log2-ratio >= 1.58 and BH-FDR <= 0.05.

B1: AUG1, likely to be in an augmin-like complex with AUG3 (ATAUG1) (protein, UniProt F4IK01 1-299)
chain: MSDVTGDLAAVSEAKGGSDAARISEVKAWLTSQFEAVGKEVPNFEYTHRSITHLYNLATASQAKSQAATIVANDFRLKASEYRAQAARIREILESAGMSQESLPSNVVSSAQVLANVANLLNIRDTELSSFLVAMGDISLRKTGVEEKRAKAQKESNALLDYTRKAIQRLTYLKKILAQLEDDVVPCESQMENWKTNLEVMAVKEEQYIQQYKKYEQMLLNRVGYTPKISHRELVEMAEHRKELDKMTKPVLDTLRSYQDLPPDKALAALAIEDKKRQFTAAEKYLEEVLQSALETNDE
Take B1: the binding entry was “binds”.

B2: Pleiotropic regulatory locus 1 (PRL1) (protein, UniProt Q42384 1-486)
chain: MPAPTTEIEPIEAQSLKKLSLKSLKRSLELFSPVHGQFPPPDPEAKQIRLSHKMKVAFGGVEPVVSQPPRQPDRINEQPGPSNALSLAAPEGSKSTQKGATESAIVVGPTLLRPILPKGLNYTGSSGKSTTIIPANVSSYQRNLSTAALMERIPSRWPRPEWHAPWKNYRVIQGHLGWVRSVAFDPSNEWFCTGSADRTIKIWDVATGVLKLTLTGHIEQVRGLAVSNRHTYMFSAGDDKQVKCWDLEQNKVIRSYHGHLSGVYCLALHPTLDVLLTGGRDSVCRVWDIRTKMQIFALSGHDNTVCSVFTRPTDPQVVTGSHDTTIKFWDLRYGKTMSTLTHHKKSVRAMTLHPKENAFASASADNTKKFSLPKGEFCHNMLSQQKTIINAMAVNEDGVMVTGGDNGSIWFWDWKSGHSFQQSETIVQPGSLESEAGIYAACYDNTGSRLVTCEADKTIKMWKEDENATPETHPINFKPPKEIRRF
B2: the binding result was “binds”.

B3: SWAP (Suppressor-of-White-APricot)/surp domain-containing protein (TGH) (protein, UniProt Q8GXN9 1-930)
chain: MGSDEEDFVFHGTPIEREEEIASRKKKAVAGASGNLRTLPAWKQEVTDEEGRRRFHGAFTGGYSAGYYNTVGSKEGWAPQSFTSSRQNRAGARKQSISDFLDEDEKADMEGKSLSASSQFDTFGFTAAEHSRKHAEKEQHERPSAIPGPVPDELVAPVSESIGVKLLLKMGWRRGHSIKEVRASSDARREARKAFLAFYTDENTKETPDSLVSETEVETSLGEDIKISESTPVYVLNPKQDLHGLGYDPFKHAPEFREKKRSRMSANKEVGFRKPLSMKESLFGPKSGKIAPGFGIGALEELDVEDEDVYAGYDFDQTYVIEDEQPARQSNDNRLRLTSKEHDVLPGFGAAKNSDYSMERFNPPIIPKDFVARHKFSGPLEAETKPTVSAPPEVPPPADNNLKLLIEGFATFVSRCGKLYEDLSREKNQSNQLFDFLREGNGHDYYARRLWEEQQKRKDQSKLTLDVKVSPTVQKMTAETRGSLLGEKPLQRSLKETDTSASSGGSFQFPTNLSDTFTKSASSQEAADAVKPFKDDPAKQERFEQFLKEKYKGGLRTTDSNRVNSMSESARAQERLDFEAAAEAIEKGKAYKEVRRATEQPLDFLAGGLQFTSGGTEQIKDTGVVDMKSSKTYPKREEFQWRPSPLLCKRFDLPDPFMGKLPPAPRARNKMDSLVFLPDTVKAASARQVSESQVPKKETSIEEPEVEVEVENVERPVDLYKAIFSDDSEDDEDQPMNGKIQEGQEKKNEAAATTLNRLIAGDFLESLGKELGFEVPMEEEIKSRSKPEDSSDKRLDRPGLKEKVEEKTSSLTLGSEEEKSRKKREKSPGKRSGGNDLSSSESSGDERRRKRYNKKDRHRNDSESDSSSDYHSRDKQGSRSRSKRRESSREKRSSHKKHSKHRRTKKSSSSRYSSDEEQKESRREKKRRRD
For B3, the binding result is “binds”.

B4: N-terminal nucleophile aminohydrolases (Ntn hydrolases) superfamily protein (PBF1) (protein, UniProt P42742 1-223)
chain: MTKQHANWSPYDNNGGTCVAIAGSDYCVIAADTRMSTGYSILSRDYSKIHKLADRAVLSSSGFQADVKALQKVLKSRHLIYQHQHNKQMSCPAMAQLLSNTLYFKRFFPYYAFNVLGGLDEEGKGCVFTYDAVGSYERVGYGAQGSGSTLIMPFLDNQLKSPSPLLLPKQDSNTPLSEAEAVDLVKTVFASATERDIYTGDKLEIMILKADGIKTELMDLRKD
As for B4, the binding result is on record as “binds”.

B5: SNF7 family protein (VPS46.2) (protein, UniProt Q9SSM4 1-203)
chain: MGNTDKLMNQIFDLKFTSKSLQRQSRKCEKEEKAEKLKVKKAIEKGNMDGARIYAENAIRKRSEQMNYLRLASRLDAVVARLDTQAKMTTITKSMTNIVKSLESSLATGNLQKMSETMDSFEKQFVNMEVQAEFMENAMAGSTSLSTPEGEVNSLMQQVADDYGLEVSVGLPQPAGHAIPTKTEEKVDEDDLSRRLAELKARG
As to B5, the binding entry was “binds”.

B6: GCIP-interacting family protein (ATSYF2) (protein, UniProt Q8LB80 1-298)
chain: MVSERRVHPDCINASNPYHECVEYCFKKIAEAKARFEKQNTGLAKVHEQTREPLDDKRIEEDSSEEEEEEEDNQEPQVDVTQLTGRQKKLFELRLKMNEARKSNQTDVGSEKKKMEAPTETKGISKQKWLEGRKKKIGKLLDANGLDMTQAYMLDTQEAAESKYKKWEKEPTPAGWDVFNQKTLYNAYKKRTKNIQVDLEEYNRMRAADPEFYREASSLQYGKAPKTSQDKIDKMAKELLDREQKRQEFSRRRKFREEKDIDSINDRNEHFNKKIERAFGKYTLEIKNNLERGTALPD
B6: the binding result is recorded as “binds”.

B7: Alfin-like 1 (AL1) (protein, UniProt Q9FFF5 1-241)
chain: MAAESSNPRTVEEIFKDFSGRRSGFLRALSVDVDKFYSLCDPEMENLCLYGHPNGTWEVNLPAEEVPPELPEPALGINFARDGMQRKDWLSLVAVHSDCWLLSVSSYFGARLNRNERKRLFSLINDLPTLFEVVTGRKPIKDGKPSMDLGSKSRNGVKRSIEGQTKSTPKLMEESYEDEDDEHGDTLCGSCGGNYTNDEFWICCDVCERWYHGKCVKITPAKAESIKQYKCPSCCTKKGRQ
Consider B7, for which the binding result is reported as “binds”.

B8: BEL1-like homeodomain 4 (BLH4) (protein, UniProt Q94KL5 1-627)
chain: MGLATTTSSMSQDYHHHQGIFSFSNGFHRSSSTTHQEEVDESAVVSGAQIPVYETAGMLSEMFAYPGGGGGGSGGEILDQSTKQLLEQQNRHNNNNNSTLHMLLPNHHQGFAFTDENTMQPQQQQHFTWPSSSSDHHQNRDMIGTVHVEGGKGLSLSLSSSLAAAKAEEYRSIYCAAVDGTSSSSNASAHHHQFNQFKNLLLENSSSQHHHHQVVGHFGSSSSSPMAASSSIGGIYTLRNSKYTKPAQELLEEFCSVGRGHFKKNKLSRNNSNPNTTGGGGGGGSSSSAGTANDSPPLSPADRIEHQRRKVKLLSMLEEVDRRYNHYCEQMQMVVNSFDQVMGYGAAVPYTTLAQKAMSRHFRCLKDAVAVQLKRSCELLGDKEAAGAASSGLTKGETPRLRLLEQSLRQQRAFHHMGMMEQEAWRPQRGLPERSVNILRAWLFEHFLNPYPSDADKHLLARQTGLSRNQVSNWFINARVRLWKPMVEEMYQQEAKEREEAEEENENQQQQRRQQQTNNNDTKPNNNENNFTVITAQTPTTMTSTHHENDSSFLSSVAAASHGGSDAFTVATCQQDVSDFHVDGDGVNVIRFGTKQTGDVSLTLGLRHSGNIPDKNTSFSVRDFGDF
For B8, the binding entry is listed as “binds”.

B9: Ankyrin repeat family protein/BTB/POZ domain-containing protein (BOP2) (protein, UniProt Q9ZVC2 1-491)
chain: MSNLEESLRSLSLDFLNLLINGQAFSDVTFSVEGRLVHAHRCILAARSLFFRKFFCGTDSPQPVTGIDPTQHGSVPASPTRGSTAPAGIIPVNSVGYEVFLLLLQFLYSGQVSIVPQKHEPRPNCGERGCWHTHCSAAVDLALDTLAASRYFGVEQLALLTQKQLASMVEKASIEDVMKVLIASRKQDMHQLWTTCSHLVAKSGLPPEILAKHLPIDVVTKIEELRLKSSIARRSLMPHNHHHDLSVAQDLEDQKIRRMRRALDSSDVELVKLMVMGEGLNLDESLALHYAVESCSREVVKALLELGAADVNYPAGPAGKTPLHIAAEMVSPDMVAVLLDHHADPNVRTVGGITPLDILRTLTSDFLFKGAVPGLTHIEPNKLRLCLELVQSAAMVISREEGNNSNNQNNDNNTGIYPHMNEEHNSGSSGGSNNNLDSRLVYLNLGAGTGQMGPGRDQGDDHNSQREGMSRHHHHHQDPSTMYHHHHQHHF
For the molecule B9, the binding entry is “binds”.

B10: Oligouridylate-binding protein 1A (UBP1A) (protein, UniProt Q9SYG4 1-426)
chain: MQNQRLIKQQQQQQQQQHQQAMIQQAMMQQHPSLYHPGVMAPPQMEPLPSGNLPPGFDPTTCRSVYAGNIHTQVTEILLQEIFASTGPIESCKLIRKDKSSYGFVHYFDRRCASMAIMTLNGRHIFGQPMKVNWAYATGQREDTSSHFNIFVGDLSPEVTDAALFDSFSAFNSCSDARVMWDQKTGRSRGFGFVSFRNQQDAQTAINEMNGKWVSSRQIRCNWATKGATFGEDKHSSDGKSVVELTNGSSEDGRELSNEDAPENNPQFTTVYVGNLSPEVTQLDLHRLFYTLGAGVIEEVRVQRDKGFGFVRYNTHDEAALAIQMGNAQPFLFSRQIRCSWGNKPTPSGTASNPLPPPAPASVPSLSAMDLLAYERQLALAKMHPQAQHSLRQAGLGVNVAGGTAAMYDGGYQNVAAAHQQLMYYQ
Take B10: the binding result is “binds”.

B11: CAP-binding protein 20 (ATCBP20) (protein, UniProt Q9XFD1 1-257)
chain: MASLFKEQAKLSAYRDRRFSGTQEEFDEALRASTTVYIGNVSFYTTEEQLYELFSRAGEIKKIIMGLDKNTKTPCGFCFVLFYSREDTEDAVKYISGTILDDRPIRVDFDWGFQEGRQWGRGRSGGQVRDEYRTDYDPARGGYGKLVQKELEAQRQLVDYGTGSLGAYPQAAPTNYGNGRRGGGNYGQGGQNRHGRGDYHRKRQRDDDRYGRDNSRRNTDHESRRDTDSDMRPEKNPRFRESGDSDDDGEDDRKRRS
Regarding B11, the binding entry is on record as “binds”.

B12: One of the zinc finger-containing glycine-rich RNA-binding proteins involved in cold tolerance (ATRZ-1C) (protein, UniProt Q8RWN5 1-310)
chain: MAAKEGSRIFVGGLSPEVTDRDLERAFSRFGDILDCQIMLERDTGRSRGFGFITFADRRAMDESIREMHGRDFGDRVISVNRAEPKLGRDDGESHGSRGGRDSGYSIAGKGSFGGGGGGGGRVGEDECFKCGRVGHWARDCPSAGGGRGGPVGGFSSRASAYGGSDGRVDRYADRDRYVDRERYIDDRYDGAARYGARDRFDSREAYIPRDRYASDRYAAPADRFAGGDRYSRGSDRYPPGSYDKARSFERDIAPSAGSDRYGGGRAGGPIRGGGEEGRGFRSRAGAPYERPSRSGGGGAYPSSSTFDRY
Take B12: the binding result is “binds”.

B13: A member of the Arabidopsis LIM proteins: a family of actin bundlers with distinct expression patterns (WLIM2A) (protein, UniProt O04193 1-200)
chain: MSFTGTQQKCRACEKTVYPVELLSADGISYHKACFKCSHCKSRLQLSNYSSMEGVVYCRPHFEQLFKESGSFSKNFQSPAKPLTDKPTPELNRTPSRLAGMFSGTQDKCATCTKTVYPIEKVTVESQCYHKSCFKCSHGGCPISPSNYAALEGILYCKHHFAQLFKEKGSYNHLIKSASIKRATAAATAAAAAVAAVPES
Take B13: the binding result is on record as “binds”.
